Measurements taken from PubChem BioAssay AID248 (DTP/NCI, 2004).
The list does not hold the whole screen: it is rich in T/C values a quarter to a half above the control, in often repeated tests (any T/C) and in doses without a T/C. Other doses and runs of a compound stand elsewhere. T/C is the treated group as % of the vehicle group. Some entries give survivors of the animals treated and no T/C: the source files T/C as zero there, which appears to mark a toxic dose or a test without result, not a measured value. Some survivor counts are full or nearly so, which does not show that the dose was tolerated: the source hardly ever lists a survival T/C far under the control, and the zero likely stands for such cases as well. Survivors were counted at the toxicity check, usually on the fifth day, unless a day is given; later deaths do not show. Schedule codes are those of the source, taken here to give the interval after Q, in days (D) or hours (H), and the number of doses after X. Some schedules carry Z or #; the key to these is not given. For survival time, the PubChem record calls one and a half times the control and up active, and a quarter to a half above the control has no call in these data; cut-offs in other NCI protocols can differ. Some T/C values are followed by the survivors on the day toxicity was checked, most often the fifth; where none is given, no animal had died by that day.

System: L1210 leukemia ip in BDF1 mice, survival T/C
Experiment: NCI In Vivo Anticancer Drug Screen. Data for tumor model L1210 Leukemia (intraperitoneal) in B6D2F1 (BDF1) mice
Conditions: T/C endpoint: mean survival time, higher T/C = longer survival
[1] = dose: 25.0 mg/kg/injection, schedule: Q04DX002 (ip), vehicle: saline with Tween-80
[2] = dose: 400.0 mg/kg/injection, schedule: Q04DX002 (ip), vehicle: Klucel (hydroxypropylcellulose) (HPC)
[3] = dose: 150.0 mg/kg/injection, schedule: Q01DX001 (ip), vehicle: saline
[4] = dose: 300.0 mg/kg/injection, schedule: Q01DX001 (ip), vehicle: saline
[5] = dose: 400.0 mg/kg/injection, schedule: Q01DX001 (ip), vehicle: saline
[6] = dose: 200.0 mg/kg/injection, schedule: Q01DX001 (ip), vehicle: saline with Tween-80
[7] = dose: 400.0 mg/kg/injection, schedule: Q01DX001 (ip), vehicle: saline with Tween-80
[8] = dose: 400.0 mg/kg/injection, schedule: Q01DX009 (ip), vehicle: saline with Tween-80
[9] = dose: 100.0 mg/kg/injection, schedule: Q04DX002 (ip), vehicle: saline
[10] = dose: 200.0 mg/kg/injection, schedule: Q04DX002 (ip), vehicle: saline with Tween-80
[11] = dose: 400.0 mg/kg/injection, schedule: Q04DX002 (ip), vehicle: saline with Tween-80
[12] = dose: 400.0 mg/kg/injection, schedule: Q01DX009 (ip), vehicle: Klucel (hydroxypropylcellulose) (HPC)
[13] = dose: 200.0 mg/kg/injection, schedule: Q04DX003 (ip), vehicle: saline with Tween-80
[14] = dose: 400.0 mg/kg/injection, schedule: Q04DX003 (ip), vehicle: saline with Tween-80

SMILES: CC(C)(C)[CH2][Sn]([Cl])([CH2]C(C)(C)C)[CH2]C(C)(C)C
- survivor count [1]: 1 of 6
- survivor count (dose: 50.0 mg/kg/injection, schedule: Q04DX002 (ip), vehicle: saline with Tween-80): 4 of 6

SMILES: O=NN(CCF)C(=O)NC1CCCCCCCCCCC1
- T/C (dose: 93.0 mg/kg/injection, schedule: Q01DX001 (ip), vehicle: other): 133 % of control
- survivor count (dose: 187.0 mg/kg/injection, schedule: Q01DX001 (ip), vehicle: other): 0 of 10
- survivor count (dose: 250.0 mg/kg/injection, schedule: Q01DX001 (ip), vehicle: other): 0 of 10
- survivor count (dose: 375.0 mg/kg/injection, schedule: Q01DX001 (ip), vehicle: other): 0 of 10
- survivor count (dose: 500.0 mg/kg/injection, schedule: Q01DX001 (ip), vehicle: other): 0 of 10
- survivor count (dose: 750.0 mg/kg/injection, schedule: Q01DX001 (ip), vehicle: other): 0 of 10
- survivor count (dose: 1000.0 mg/kg/injection, schedule: Q01DX001 (ip), vehicle: other): 0 of 10

SMILES: O=C1OCC/C1=C/OC(=O)c1ccccc1
- survivor count [2]: 3 of 3

SMILES: O=C(NSN1CCOCC1)c1ccccc1
- survivor count [2]: 1 of 3

SMILES: CCSC1OC(CO)C(O)C1Nc1ccc([N+](=O)[O-])cc1[N+](=O)[O-] (stereo unspecified)
- survivor count (dose: 200.0 mg/kg/injection, schedule: Q01DX001 (ip), vehicle: carboxymethylcellulose (CMC)): 0 of 4
- survivor count (dose: 400.0 mg/kg/injection, schedule: Q01DX001 (ip), vehicle: carboxymethylcellulose (CMC)): 0 of 4

SMILES: CSC(=S)NNC(=O)c1ccc(C(F)(F)F)cc1
- survivor count (dose: 75.0 mg/kg/injection, schedule: Q01DX001 (ip), vehicle: saline): 0 of 6
- survivor count [3]: 0 of 6
- survivor count [4]: 0 of 6

SMILES: Nc1ccc(C(=O)N/N=C/c2ccc(N(CCBr)CCBr)cc2)cc1
- T/C (dose: 25.0 mg/kg/injection, schedule: Q01DX Z (ip), vehicle: carboxymethylcellulose (CMC)): 134 % of control [5 of 6 alive]
- T/C (dose: 50.0 mg/kg/injection, schedule: Q01DX Z (ip), vehicle: carboxymethylcellulose (CMC)): 138 % of control
- survivor count (dose: 100.0 mg/kg/injection, schedule: Q01DX Z (ip), vehicle: carboxymethylcellulose (CMC)): 6 of 6
- T/C [5]: 127 % of control [3 of 4 alive]

SMILES: [O-][n+]1onc2ccccc21
- survivor count [6]: 1 of 6
- survivor count [7]: 0 of 6

SMILES: Cc1cc(-c2ccccc2)c2ccccc2c1N(CC(=O)O)S(=O)(=O)c1ccccc1
- survivor count [8]: 4 of 6

SMILES: CCc1nc2ccc(N=Cc3ccc(N(CCCl)CCCl)c(OC)c3)cc2[nH]1
- survivor count [9]: 0 of 3
- survivor count (dose: 200.0 mg/kg/injection, schedule: Q04DX002 (ip), vehicle: saline): 0 of 3
- survivor count (dose: 400.0 mg/kg/injection, schedule: Q04DX002 (ip), vehicle: saline): 0 of 3

SMILES: CN(CC(=O)O)CC1C(c2ccccc2)C1c1ccccc1 (stereo unspecified)
- survivor count [2]: 1 of 3

SMILES: COc1cc(-c2ccc(N)c(OC)c2)ccc1N
- survivor count (dose: 125.0 mg/kg/injection, schedule: Q01DX Z (ip), vehicle: saline): 4 of 7
- survivor count (dose: 250.0 mg/kg/injection, schedule: Q01DX Z (ip), vehicle: saline): 0 of 7
- survivor count (dose: 500.0 mg/kg/injection, schedule: Q01DX Z (ip), vehicle: methylcellulose (MC)): 3 of 7
- survivor count (dose: 500.0 mg/kg/injection, schedule: Q01DX Z (ip), vehicle: saline): 0 of 7
- survivor count (dose: 750.0 mg/kg/injection, schedule: Q01DX Z (ip), vehicle: methylcellulose (MC)): 0 of 7

SMILES: C[P+](c1ccccc1)(c1ccc(Cl)cc1)c1ccc(Cl)cc1
- survivor count [9]: 1 of 3
- survivor count [10]: 0 of 3
- survivor count [11]: 0 of 3

SMILES: [I][Hg][I].c1ccc(N=P(c2ccccc2)(c2ccccc2)c2ccccc2)cc1
- survivor count (dose: 75.0 mg/kg/injection, schedule: Q01DX001 (ip), vehicle: other): 1 of 6
- survivor count (dose: 150.0 mg/kg/injection, schedule: Q01DX001 (ip), vehicle: other): 0 of 6
- survivor count (dose: 300.0 mg/kg/injection, schedule: Q01DX001 (ip), vehicle: other): 0 of 6

SMILES: C[n+]1c(/C=C/c2ccnc3c(O)cccc23)sc2ccccc21
- survivor count (dose: 60.0 mg/kg/injection, schedule: Q01DX001 (ip), vehicle: saline): 4 of 6

SMILES: NC(=O)c1cc(Cl)nc(Cl)n1
- survivor count (dose: 100.0 mg/kg/injection, schedule: Q01DX Z (ip), vehicle: methylcellulose (MC)): 3 of 6
- survivor count (dose: 200.0 mg/kg/injection, schedule: Q01DX Z (ip), vehicle: methylcellulose (MC)): 2 of 6

SMILES: Cc1ccc(C(C)C)c(OCC(O)Cn2ccnc2)c1 (stereo unspecified)
- survivor count (dose: 200.0 mg/kg/injection, schedule: Q01DX001 (ip), vehicle: saline): 0 of 6
- survivor count [5]: 0 of 6

SMILES: CCCCNC(=S)N/N=C/c1ccccn1
- survivor count (dose: 400.0 mg/kg/injection, schedule: Q04DX003 (ip), vehicle: Klucel (hydroxypropylcellulose) (HPC)): 1 of 3

SMILES: CCOC(=O)C[n+]1ccc(C(=O)c2cc3ccccc3[nH]2)cc1
- survivor count [8]: 1 of 6

SMILES: NC1=NC(=O)C(c2ccccc2)O1 (stereo unspecified)
- survivor count [12]: 0 of 6

SMILES: CN(CCN1CCCCC1)C(=O)C(c1ccccc1)C1CCCCC1 (stereo unspecified)
- survivor count [3]: 2 of 6
- survivor count [4]: 0 of 6

SMILES: O=[N+]([O-])c1cccc(N=Nc2ccc(O)cc2)c1
- survivor count (dose: 300.0 mg/kg/injection, schedule: Q01DX009 (ip), vehicle: Klucel (hydroxypropylcellulose) (HPC)): 0 of 6
- survivor count [12]: 1 of 6

SMILES: C=CCNC(=S)Nc1cccc(Cl)c1C
- survivor count (dose: 100.0 mg/kg/injection, schedule: Q01DX009 (ip), vehicle: Klucel (hydroxypropylcellulose) (HPC)): 6 of 6
- survivor count (dose: 200.0 mg/kg/injection, schedule: Q01DX009 (ip), vehicle: Klucel (hydroxypropylcellulose) (HPC)): 6 of 6
- survivor count [12]: 0 of 6

SMILES: ClCc1c2ccccc2cc2ccccc12
- survivor count [1]: 3 of 3
- survivor count (dose: 100.0 mg/kg/injection, schedule: Q04DX002 (ip), vehicle: saline with Tween-80): 3 of 3
- survivor count [10]: 0 of 3
- survivor count [11]: 0 of 3

SMILES: CC1=C(C)C(C)(Cl)C1(C)Cl (stereo unspecified)
- survivor count (dose: 300.0 mg/kg/injection, schedule: Q01DX001 (ip), vehicle: acetone): 0 of 6

SMILES: Cc1cn(C2OC(CO)C(O)C2O)c(=O)[nH]c1=O (stereo unspecified)
- survivor count (dose: 15.0 mg/kg/injection, schedule: Q01DX Z (ip), vehicle: saline): 6 of 6

SMILES: N#CCc1cnc2ccccc2n1
- survivor count (dose: 50.0 mg/kg/injection, schedule: Q04DX003 (ip), vehicle: saline with Tween-80): 1 of 6
- survivor count (dose: 100.0 mg/kg/injection, schedule: Q04DX003 (ip), vehicle: saline with Tween-80): 0 of 6
- survivor count [13]: 0 of 6
- survivor count [14]: 0 of 6

SMILES: O=[N+]([O-])c1ccc(OCc2ccccc2)c(Cl)c1
- survivor count [13]: 3 of 6
- survivor count [14]: 1 of 6

SMILES: Nc1nc(N)nc(CCN2CCCCC2)n1
- survivor count (dose: 100.0 mg/kg/injection, schedule: Q01DX001 (ip), vehicle: saline with Tween-80): 0 of 3
- survivor count [6]: 0 of 3
- survivor count [7]: 0 of 3

SMILES: CN=C(NC)c1ccc(NC(=O)c2cc(Cl)cc(C(=O)Nc3ccc(C(=NC)NC)cc3)c2)cc1
- survivor count (dose: 30.0 mg/kg/injection, schedule: Q01DX Z (ip), vehicle: saline): 1 of 6
- survivor count (dose: 60.0 mg/kg/injection, schedule: Q01DX Z (ip), vehicle: saline): 0 of 6
- survivor count (dose: 120.0 mg/kg/injection, schedule: Q01DX Z (ip), vehicle: saline): 0 of 6
